Publication PMC4476799, “Englerin A Agonizes the TRPC4/C5 Cation Channels to Inhibit Tumor Cell Line Proliferation” (PLoS ONE, 2015)
Further values from the same series stand in other lists.

Tested on: cancer cell lines from the cancer cell line encyclopedia (CCLE)
Assay: Cell line profiling (CLiP) proliferation experiment
Assay type: cell-based
Set-up: ACTIVITY_AREA: scale not given here; AMAX: unit not given here
Protocol: Compound profiling experiment and data analysis was performed as previously described. Data was imported and plotted using the Tibco Spotfire DXP application. Lines were categorized as sensitive, intermediate and refractory as follows: Amax<-40 & Inflection Point <2 ~ Sensitive, Amax>-20 & Inflection Point >10 ~ Refractory, all else were called Intermediate. Cancer Cell line HG-U133 Plus 2 data was processed and normalized as described. […] Five sets of refractory cell lines were generated from the pool of refractory cell lines trying to match the lineage composition of the set of sensitive cell lines. The limma package was used as previously described to perform the statistical comparison.

[1] = cell line SCaBER, urinary_tract, transitional_cell_carcinoma
[2] = cell line SEM, haematopoietic_and_lymphoid_tissue, acute_lymphoblastic_B_cell_leukaemia
[3] = cell line SF126, central_nervous_system, astrocytoma
[4] = cell line SF-295 (central_nervous_system, astrocytoma_Grade_IV)
[5] = cell line SF-295, central_nervous_system, astrocytoma_Grade_IV
[6] = cell line SHP-77, lung, small_cell_carcinoma
[7] = cell line SK-CO-1, large_intestine, adenocarcinoma
[8] = cell line SK-LMS-1, soft_tissue
[9] = cell line SK-LU-1, lung, adenocarcinoma
[10] = cell line SK-MES-1, lung, squamous_cell_carcinoma
[11] = cell line SK-N-AS, autonomic_ganglia
[12] = cell line SK-N-BE(2), autonomic_ganglia
[13] = cell line SK-N-DZ, autonomic_ganglia
[14] = cell line SK-N-FI, autonomic_ganglia
[15] = cell line SK-N-SH (autonomic_ganglia, NS)
[16] = cell line SK-N-SH, autonomic_ganglia
[17] = cell line SK-OV-3, ovary, adenocarcinoma
[18] = cell line SKM-1, haematopoietic_and_lymphoid_tissue, acute_myeloid_leukaemia
[19] = cell line SNB-19, central_nervous_system, astrocytoma_Grade_IV
[20] = cell line SNG-M, endometrium, adenocarcinoma
[21] = cell line SNU-1, stomach, undifferentiated_adenocarcinoma
[22] = cell line SNU-16, stomach, undifferentiated_adenocarcinoma
[23] = cell line SNU-119, ovary, adenocarcinoma
[24] = cell line SNU-182, liver, hepatocellular_carcinoma
[25] = cell line SNU-449, liver, hepatocellular_carcinoma
[26] = cell line SNU-475 (liver, hepatocellular_carcinoma)
[27] = cell line SNU-475, liver, hepatocellular_carcinoma
[28] = cell line SNU-626 (central_nervous_system, astrocytoma_Grade_IV)
[29] = cell line SNU-626, central_nervous_system, astrocytoma_Grade_IV
[30] = cell line SNU-738, central_nervous_system, oligodendroglioma
[31] = cell line SNU-878, liver, hepatocellular_carcinoma
[32] = cell line SNU-1079, biliary_tract
[33] = cell line SW48 (large_intestine, adenocarcinoma)
[34] = cell line SW 1783 (central_nervous_system, astrocytoma_Grade_III)
[35] = cell line Set-2, haematopoietic_and_lymphoid_tissue, essential_thrombocythaemia
[36] = cell line THP-1 (haematopoietic_and_lymphoid_tissue, acute_myeloid_leukaemia)

`CC(C)[C@@]12C[C@@H](O)[C@@](C)(O1)[C@@H]1CC[C@@H](C)[C@H]1[C@@H]2OC(=O)/C=C/c1ccccc1` [Englerin B] was tested, and the RESPONSE (cell line RT-112, urinary_tract, transitional_cell_carcinoma) was “INTERMEDIATE”, the ACTIVITY_AREA (cell line RVH-421, skin) was 25.69 and the AMAX (cell line RVH-421, skin) was -41.39. The RESPONSE (cell line RVH-421, skin) was “INTERMEDIATE”, the ACTIVITY_AREA (cell line Raji) was 46.45 and the AMAX (cell line Raji) was -92.06. For the same molecule, the RESPONSE (cell line Raji) was “INTERMEDIATE”, the ACTIVITY_AREA (cell line Reh) was 23.98 and the AMAX (cell line Reh) was -68.69. For the same molecule, the RESPONSE (cell line Reh) was “INTERMEDIATE”, the ACTIVITY_AREA [1] was 14.07 and the AMAX [1] was -45.66. For the same molecule, the RESPONSE [1] was “INTERMEDIATE”, the ACTIVITY_AREA [2] was 52.36 and the AMAX [2] was -92.78. The RESPONSE [2] was “INTERMEDIATE”, the ACTIVITY_AREA [3] was 16.33 and the AMAX [3] was -51.64. For the same molecule, the RESPONSE [3] was “INTERMEDIATE”, the ACTIVITY_AREA [4] was 32.36 and the AMAX [4] was -86.95. The RESPONSE [4] was “INTERMEDIATE”, the ACTIVITY_AREA [5] was 32.36 and the AMAX [5] was -86.95. The RESPONSE [5] was “INTERMEDIATE”, the ACTIVITY_AREA (cell line SH-4, skin) was 33.65 and the AMAX (cell line SH-4, skin) was -3.14. The RESPONSE (cell line SH-4, skin) was “REFRACTORY”, the ACTIVITY_AREA (cell line SH-10-TC, stomach) was 15.1 and the AMAX (cell line SH-10-TC, stomach) was -43.59. The RESPONSE (cell line SH-10-TC, stomach) was “INTERMEDIATE”, the ACTIVITY_AREA [6] was 31.6 and the AMAX [6] was -35.78. For the same molecule, the RESPONSE [6] was “INTERMEDIATE”, the ACTIVITY_AREA (cell line SJRH30, soft_tissue) was 51.08 and the AMAX (cell line SJRH30, soft_tissue) was -72.1. For the same molecule, the RESPONSE (cell line SJRH30, soft_tissue) was “INTERMEDIATE”, the ACTIVITY_AREA (cell line SJSA-1, bone) was 16.2 and the AMAX (cell line SJSA-1, bone) was -50.82. The RESPONSE (cell line SJSA-1, bone) was “INTERMEDIATE”, the ACTIVITY_AREA (cell line SK-BR-3, breast) was 113.22 and the AMAX (cell line SK-BR-3, breast) was -42.92. The RESPONSE (cell line SK-BR-3, breast) was “INTERMEDIATE”, the ACTIVITY_AREA [7] was 18.26 and the AMAX [7] was -55.85. For the same molecule, the RESPONSE [7] was “INTERMEDIATE”, the ACTIVITY_AREA (cell line SK-ES-1, bone) was 20.21 and the AMAX (cell line SK-ES-1, bone) was -73.28. For the same molecule, the RESPONSE (cell line SK-ES-1, bone) was “INTERMEDIATE”, the ACTIVITY_AREA [8] was 30.68 and the AMAX [8] was -47.74. For the same molecule, the RESPONSE [8] was “INTERMEDIATE”, the ACTIVITY_AREA [9] was 14.44 and the AMAX [9] was -26.13. For the same molecule, the RESPONSE [9] was “INTERMEDIATE”, the ACTIVITY_AREA (cell line SK-MEL-1, skin) was 32.43 and the AMAX (cell line SK-MEL-1, skin) was -84.28. For the same molecule, the RESPONSE (cell line SK-MEL-1, skin) was “INTERMEDIATE”, the ACTIVITY_AREA (cell line SK-MEL-2, skin) was 1.02 and the AMAX (cell line SK-MEL-2, skin) was 5.8. The RESPONSE (cell line SK-MEL-2, skin) was “REFRACTORY”, the RESPONSE (cell line SK-MEL-3, skin) was “REFRACTORY” and the ACTIVITY_AREA (cell line SK-MEL-5, skin) was 22.94. For the same molecule, the AMAX (cell line SK-MEL-5, skin) was -46.63, the RESPONSE (cell line SK-MEL-5, skin) was “INTERMEDIATE” and the ACTIVITY_AREA (cell line SK-MEL-24, skin) was 33. The AMAX (cell line SK-MEL-24, skin) was -43.01, the RESPONSE (cell line SK-MEL-24, skin) was “INTERMEDIATE” and the ACTIVITY_AREA (cell line SK-MEL-30, skin) was 109.54. The AMAX (cell line SK-MEL-30, skin) was -50.55, the RESPONSE (cell line SK-MEL-30, skin) was “INTERMEDIATE” and the ACTIVITY_AREA [10] was 30.56. For the same molecule, the AMAX [10] was -55.21, the RESPONSE [10] was “INTERMEDIATE” and the ACTIVITY_AREA [11] was 91.35. The AMAX [11] was -34.64, the RESPONSE [11] was “INTERMEDIATE” and the ACTIVITY_AREA (cell line SK-N-BE(2)) was 19.1. The AMAX (cell line SK-N-BE(2)) was 2.83, the RESPONSE (cell line SK-N-BE(2)) was “REFRACTORY” and the ACTIVITY_AREA [12] was 19.1. For the same molecule, the AMAX [12] was 2.83, the RESPONSE [12] was “REFRACTORY” and the ACTIVITY_AREA [13] was 7.35. For the same molecule, the AMAX [13] was 8.38, the RESPONSE [13] was “REFRACTORY” and the ACTIVITY_AREA [14] was 42.7. For the same molecule, the AMAX [14] was -8.91, the RESPONSE [14] was “REFRACTORY” and the ACTIVITY_AREA [15] was 19.83. For the same molecule, the AMAX [15] was -36.51, the RESPONSE [15] was “INTERMEDIATE” and the ACTIVITY_AREA [16] was 19.83. The AMAX [16] was -36.51, the RESPONSE [16] was “INTERMEDIATE” and the ACTIVITY_AREA [17] was 15.78. The AMAX [17] was -2.48, the RESPONSE [17] was “REFRACTORY” and the ACTIVITY_AREA (cell line SK-UT-1, soft_tissue) was 43.67. For the same molecule, the AMAX (cell line SK-UT-1, soft_tissue) was -47.86, the RESPONSE (cell line SK-UT-1, soft_tissue) was “INTERMEDIATE” and the ACTIVITY_AREA (cell line SKM-1) was 38.61. For the same molecule, the AMAX (cell line SKM-1) was -61.06, the RESPONSE (cell line SKM-1) was “INTERMEDIATE” and the ACTIVITY_AREA [18] was 38.61. For the same molecule, the AMAX [18] was -61.06, the RESPONSE [18] was “INTERMEDIATE” and the ACTIVITY_AREA [19] was 46.12. For the same molecule, the AMAX [19] was -38.66, the RESPONSE [19] was “INTERMEDIATE” and the ACTIVITY_AREA [20] was 18.36. The AMAX [20] was -34.56, the RESPONSE [20] was “INTERMEDIATE” and the ACTIVITY_AREA [21] was 12.42. For the same molecule, the AMAX [21] was -40.73, the RESPONSE [21] was “INTERMEDIATE” and the ACTIVITY_AREA [22] was 45.05. For the same molecule, the AMAX [22] was -92.26, the RESPONSE [22] was “INTERMEDIATE” and the ACTIVITY_AREA [23] was 11.44. For the same molecule, the AMAX [23] was -38.35, the RESPONSE [23] was “INTERMEDIATE” and the ACTIVITY_AREA [24] was 33.88. For the same molecule, the AMAX [24] was -47.55, the RESPONSE [24] was “INTERMEDIATE” and the ACTIVITY_AREA (cell line SNU-216, stomach) was 13.08. The AMAX (cell line SNU-216, stomach) was -38.81, the RESPONSE (cell line SNU-216, stomach) was “INTERMEDIATE” and the ACTIVITY_AREA [25] was 71.96. For the same molecule, the AMAX [25] was -65.86, the RESPONSE [25] was “INTERMEDIATE” and the ACTIVITY_AREA [26] was 32.78. For the same molecule, the AMAX [26] was -46.9, the RESPONSE [26] was “INTERMEDIATE” and the ACTIVITY_AREA [27] was 32.78. The AMAX [27] was -46.9, the RESPONSE [27] was “INTERMEDIATE” and the ACTIVITY_AREA [28] was 35.65. For the same molecule, the AMAX [28] was -39.96, the RESPONSE [28] was “INTERMEDIATE” and the ACTIVITY_AREA [29] was 35.65. The AMAX [29] was -39.96, the RESPONSE [29] was “INTERMEDIATE” and the ACTIVITY_AREA [30] was 58.38. The AMAX [30] was -11.21, the RESPONSE [30] was “REFRACTORY” and the ACTIVITY_AREA [31] was 12.07. For the same molecule, the AMAX [31] was -56.36, the RESPONSE [31] was “INTERMEDIATE” and the ACTIVITY_AREA [32] was 17.2. The AMAX [32] was -58.5, the RESPONSE [32] was “INTERMEDIATE” and the ACTIVITY_AREA [33] was 28.7. The AMAX [33] was -50.84, the RESPONSE [33] was “INTERMEDIATE” and the ACTIVITY_AREA [34] was 20.67. The AMAX [34] was -42.77, the RESPONSE [34] was “INTERMEDIATE” and the ACTIVITY_AREA [35] was 53.05. The AMAX [35] was -70.32, the RESPONSE [35] was “INTERMEDIATE” and the ACTIVITY_AREA [36] was 72.35. For the same molecule, the AMAX [36] was -58.83, the RESPONSE [36] was “INTERMEDIATE” and the ACTIVITY_AREA (cell line U-118 MG) was 17.9. The AMAX (cell line U-118 MG) was -38.77, the RESPONSE (cell line U-118 MG) was “INTERMEDIATE” and the ACTIVITY_AREA (cell line huH-1, liver) was 60.34. For the same molecule, the AMAX (cell line huH-1, liver) was -47.26, the RESPONSE (cell line huH-1, liver) was “INTERMEDIATE” and the ACTIVITY_AREA (huH-1 (liver)) was 60.34. For the same molecule, the AMAX (huH-1 (liver)) was -47.26 and the RESPONSE (huH-1 (liver)) was “INTERMEDIATE”.
